Patent US9017962B2, “Intracellular reporters” (The Johns Hopkins University, priority 2007, dated 2015)
At least one compound was matched to its structure with a doubt left.

System: Akt
Assay: AktAR emission ratio imaging in NIH3T3 cells
Assay type: cell-based
Conditions: 20 μM after PDGF stimulated response stabilized
Protocol: NIH 3T3 cells were used in all experiments. The cells were plated on sterilized glass coverslips in 35-mm dishes and were grown to 40% confluency in Dulbecco's modified Eagle's medium (10% FBS) at 37° C. with 5% CO2. Cells were transfected with Lipofectamine (Invitrogen) then serum-starved for 24 h before imaging.
NIH 3T3 cells were washed once with Hanks' balanced salt solution (HBSS) buffer and imaged in the dark at room temperature. Images were acquired on a Zeiss Axiovert 200M microscope with a cooled charge-coupled device camera, as described in Ananthanarayanan, 2005. Dual emission ratio imaging used a 420DF20 excitation filter, a 450DRLP dichroic mirror, and two emission filters. For CFP and YFP, 475DF40 and 535DF25 were used respectively. Exposure time was 50-500 ms. Images were taken every 20-30 s.
Imaging data were analyzed with Metafluor 6.2 software (Universal Imaging, Downingtown, Pa.). Fluorescence images were background-corrected by deducting the background (regions with no cells) from the emission intensities of CFP or YFP. Traces before addition of drugs were normalized to 1.

Structure (SMILES): O=c1cc(N2CCOCC2)oc2c(-c3ccccc3)cccc12 [LY294002]
- effect on FRET ratio of AktAR (reversibility): caused a decrease of FRET ratio
